PubChem BioAssay AID2685 (National Center for Advancing Translational Sciences (NCATS), 2010)
Some of the results follow. These are further read-outs of the screen, such as a control signal, another cell line or another target. No call is given for them. Compounds called inactive in the main read-out are mostly missing here. The note in brackets gives the kind of curve behind each potency; many fits are weak.

Assay: qHTS Assay for Lipid Storage Modulators in Drosophila S3 Cells;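 on cell number change: cells counted by Cell Tracker Red CMTPX staining in the red channel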
Settings: BODIPY lipid droplet fluorescence, 18-24 h; for cell number change: measured here: cell count max response, cells fed with added oleic acid
Summary of the method: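 Laser-scanning cytometry quantifies lipid droplet accumulation (500–530 nm total intensity; droplet/cell object ratio) in oleic acid-fed (400 uM added) Drosophila S3 cells treated with a concentration series. 20 uM Triacsin C defined 100% inhibition.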

[1] = measured here: lipid fluorescence (Fed channel) AC50, cells fed with added oleic acid
[2] = measured here: cell number channel AC50, cells fed with added oleic acid

CCCCC(CC)CNC(=O)c1ncn[nH]1 (stereo unspecified)
cell number change: -36.8%
AC50 [1]: 6.51 µM [falling, single point]

Cc1sc(N/N=C/c2cccnc2)nc1-c1ccccc1
cell number change: -52.5%
AC50 [2]: 13 µM [falling, partial curve]
AC50 [1]: 16.4 µM [falling, partial curve]

O=C(CN1CCN(S(=O)(=O)c2ccccc2Cl)CC1)NCC1(N2CCOCC2)CCCCC1
cell number change: 77.9%
AC50 [2]: 14.6 µM [rising, partial curve]

CC(=O)Nc1ccc(Nc2ncnc3c2cnn3-c2ccc(C)cc2C)cc1
AC50 [1]: 18.4 µM [rising, single point]

CCNc1cc2n(c(=O)n1)CCc1cc(OC)c(OC)cc1-2
cell number change: 20.2%
AC50 [2]: 3.26 µM [rising, full curve, poor fit]

C=CCOc1c2ccc(C(=O)NCc3ccccc3OC)cc2nn1C
cell number change: -1.68%
AC50 [1]: 0.00517 µM [falling, full curve, poor fit]

O=C(c1ccc2c3c(cccc13)CC2)C1CCCN(C(=O)c2cc[n+]([O-])cc2)C1 (stereo unspecified)
cell number change: 27.6%
AC50 [1]: 6.51 µM [rising, full curve, poor fit]

CCNC(=S)N/N=C/c1ccc(OCCOc2ccccc2C)cc1
cell number change: -77.1%
AC50 [2]: 7.31 µM [falling, partial curve, poor fit]
AC50 [1]: 0.651 µM [falling, partial curve, poor fit]

Cc1c(C)c2ccc(OCC(=O)NC3CCN(Cc4ccccc4)CC3)cc2oc1=O
cell number change: 34.5%

O=C(c1ccccc1)N1CCN(c2ccc([N+](=O)[O-])c(N3CCOCC3)c2)CC1
cell number change: -0.89%
AC50 [1]: 6.51 µM [falling, single point]

Cc1cc(C)c(S(=O)(=O)Nc2ccc(O)cc2)cc1C
cell number change: 40.1%
AC50 [2]: 29.1 µM [rising, single point]
AC50 [1]: 0.651 µM [rising, partial curve, poor fit]

Cc1noc(/C=C/N(C)C)c1S(=O)(=O)N1CCCC(C(=O)NCc2cccs2)C1 (stereo unspecified)
cell number change: 83.9%
AC50 [2]: 29.1 µM [rising, single point]

CCc1nnc(NC(=O)CSc2nnc(CNc3ccc(F)cc3)n2C2CCCCC2)s1
cell number change: -21.1%
AC50 [2]: 0.00461 µM [falling, full curve, poor fit]
AC50 [1]: 0.411 µM [falling, partial curve, poor fit]

O=C(O)c1ccc(N/N=C/C=C/c2ccccc2)cc1
cell number change: 13.4%
AC50 [1]: 18.4 µM [rising, single point]

Nc1nc(SCC(=O)Nc2ccccc2)[nH]c(=O)c1-c1ccccc1
cell number change: -1.05%
AC50 [1]: 0.58 µM [falling, single point]

Cc1cccc(N(C(=O)c2csnn2)C(C(=O)NC2CCCCC2)c2ccccn2)c1C (stereo unspecified)
cell number change: -2.92%
AC50 [1]: 9.2 µM [rising, single point]

COCCNc1nc2ccccc2nc1NS(=O)(=O)c1ccc(C)cc1C
cell number change: 42.5%
AC50 [2]: 2.06 µM [rising, partial curve]
AC50 [1]: 7.31 µM [rising, partial curve]

COc1ccc(CNC(=O)CCCN2C(=O)c3ccccc3C2=O)cc1
cell number change: 146%
AC50 [2]: 0.00461 µM [falling, full curve, poor fit]
AC50 [1]: 0.00461 µM [falling, full curve, poor fit]

CC(C)(C)c1ccc(-c2cn(-c3ccc(Br)cc3)c3[n+]2CCCS3)cc1
cell number change: -69.7%
AC50 [2]: 2.06 µM [falling, full curve]
AC50 [1]: 2.59 µM [falling, full curve]

CC1COc2ccccc2N1S(=O)(=O)c1cc(Cl)ccc1Cl (stereo unspecified)
cell number change: 16.3%
AC50 [1]: 6.51 µM [rising, partial curve]

CC(C)CC(C(=O)OCC(=O)Nc1cccc(Cl)c1)N1C(=O)C2CC=CCC2C1=O (stereo unspecified)
cell number change: -31.7%
AC50 [2]: 23.1 µM [falling, single point]
AC50 [1]: 14.6 µM [falling, single point]

Cc1ccc(OCC(=O)Nc2sc3c(c2C#N)CCC3)cc1C
cell number change: -38.2%
AC50 [2]: 20.6 µM [falling, partial curve]

Cc1ccc2nc(NC(=O)COC(=O)c3ccccn3)sc2c1
AC50 [2]: 3.26 µM [falling, single point]
AC50 [1]: 3.66 µM [falling, single point]

COc1ccc(S(=O)(=O)N2CCN(c3ccc(C)cc3C)CC2)cc1OC
AC50 [2]: 5.17 µM [rising, single point]

O=C(Oc1cccnc1)c1ccc(Cl)c(Cl)c1
cell number change: 43.1%
AC50 [2]: 18.4 µM [rising, single point]
AC50 [1]: 29.1 µM [rising, single point]

Cc1ccc2c(c1)N(C(=O)CCC(=O)N1CCC(C(N)=O)CC1)CCO2
cell number change: 13%
AC50 [1]: 0.58 µM [rising, full curve, poor fit]

Cc1c(Cl)cccc1NC(=O)CCC(=O)NNC(=O)CCC(=O)O
cell number change: -2.7%
AC50 [2]: 6.51 µM [rising, single point]

Cc1occc1-c1nnc(SCC(=O)NC2CCCCC2C)o1 (stereo unspecified)
AC50 [1]: 6.51 µM [falling, single point]

CCc1ccc(C2CC(=O)N(c3cccc(F)c3)C3=C2C(=O)OC3)cc1 (stereo unspecified)
AC50 [2]: 3.66 µM [falling, partial curve, poor fit]

COc1cc2oc3cc(C)oc(=O)c3c2cc1OC
cell number change: 48.9%
AC50 [2]: 6.51 µM [rising, partial curve, poor fit]

CCN(c1ccccc1)S(=O)(=O)c1ccc(Cl)c(NC(=O)COC(=O)C2CC2C)c1 (stereo unspecified)
cell number change: 57.8%
AC50 [2]: 29.1 µM [rising, single point]
AC50 [1]: 18.4 µM [rising, single point]

COc1ccc(S(=O)(=O)NCC2CCCN(C(=O)CN3CCCCC3)C2)cc1 (stereo unspecified)
cell number change: 12%

Cc1ccc(C(=O)Nc2ccc3c(c2)nc(CCNC(=O)c2ccco2)n3C)cc1
cell number change: 108%
AC50 [2]: 29.1 µM [rising, single point]
AC50 [1]: 29.1 µM [rising, single point]

COc1ccc(S(=O)(=O)CC(=O)c2cc3cccc(C)c3oc2=O)cc1
cell number change: -4.25%
AC50 [1]: 6.51 µM [falling, single point]

N#C/C(=C/c1ccc(-c2ccccc2)o1)c1nc(-c2cccs2)cs1
AC50 [1]: 2.91 µM [falling, partial curve]

C=C1CC(C(=O)N/N=C/c2ccc(O)cc2)C1
cell number change: -44.1%
AC50 [1]: 25.9 µM [falling, partial curve, poor fit]

CC(C)NC(=O)C1CCCN(S(=O)(=O)c2ccc(-n3cnnn3)cc2)C1 (stereo unspecified)
cell number change: 16.7%
AC50 [2]: 4.61 µM [falling, single point]
AC50 [1]: 1.3 µM [falling, partial curve]

CCc1noc(C)c1C(=O)Nc1nc(-c2ccc(OC)c(OC)c2)cs1
cell number change: 30.8%
AC50 [2]: 1.16 µM [rising, full curve]
AC50 [1]: 0.411 µM [rising, full curve]

CC1(C)C(=O)Nc2ccccc2N1C(=O)COC(=O)c1cc(S(=O)(=O)N2CCOCC2)ccc1F
AC50 [2]: 0.82 µM [falling, single point]

Cc1nn(S(=O)(=O)c2ccc(F)cc2)c(C)c1S(=O)(=O)N1CCCCC1
cell number change: 6.23%
AC50 [1]: 0.58 µM [rising, single point]

Nc1ncnc2nc(SCCc3ccccc3)[nH]c12
cell number change: -36%
AC50 [2]: 4.61 µM [falling, partial curve]

Cc1ccccc1-c1nnc(SCC(=O)NC2CCCC2)o1
cell number change: 15.2%

C=CCN1C(=O)C(O)=C(C(C)=O)C1c1ccccc1F (stereo unspecified)
cell number change: 0.929%
AC50 [1]: 0.0058 µM [falling, full curve, poor fit]

COc1ccc(NC(=O)/C(=C/c2cccs2)NC(=O)c2ccco2)cc1
AC50 [1]: 0.517 µM [falling, full curve]

O=c1ccc(-c2ccccc2)n[nH]1
cell number change: -32.1%
AC50 [2]: 1.64 µM [falling, full curve, poor fit]

COC(=O)c1ccc(CSCc2ccc(C#N)cc2)cc1
cell number change: 34.8%

O=[N+]([O-])c1ccc(C(=S)N2CCCC2)cc1
cell number change: 101%
AC50 [2]: 29.1 µM [rising, single point]

Nc1nnc(CCOc2ccccc2Cl)s1
cell number change: 29.9%

COc1ccccc1C(C)NC(=O)CN(C)CC(=O)Nc1c(C)cccc1C (stereo unspecified)
cell number change: 11.6%
AC50 [1]: 25.9 µM [rising, single point]

CCOc1ccc2nc(NS(=O)(=O)c3ccc4c(c3)n(C)c(=O)n4C)sc2c1
cell number change: 3.25%

COc1cccc(CC(=O)Nc2nc3ccccc3[nH]2)c1
cell number change: -53.1%
AC50 [1]: 0.0116 µM [falling, full curve, poor fit]

COc1cc(C(=O)c2cocc2C(=O)c2ccc3c(c2)OCO3)cc(OC)c1OC
cell number change: 27.9%
AC50 [2]: 0.146 µM [rising, full curve, poor fit]
AC50 [1]: 29.1 µM [rising, single point]

C#CCOc1nc(C)cc(C)c1S(=O)(=O)c1ccccc1C
cell number change: 12.6%
AC50 [1]: 0.103 µM [rising, full curve, poor fit]

O=C(CN(Cc1cccs1)S(=O)(=O)c1ccc(S(=O)(=O)NC2CCCCC2)cc1)Nc1ccccc1
cell number change: 57.8%
AC50 [2]: 29.1 µM [rising, single point]

COc1ccc(C(=O)O)cc1S(=O)(=O)NC(C)(C)C
cell number change: -23.7%
AC50 [1]: 0.82 µM [falling, full curve, poor fit]

O=C(CSC1=Nc2ccccc2C2=NC(Cc3c[nH]c4ccccc34)C(=O)N12)NC1CCCCC1 (stereo unspecified)
cell number change: 17.8%
AC50 [2]: 0.103 µM [rising, full curve, poor fit]

C/C(=N/NS(=O)(=O)c1ccc(C)cc1)c1ccc2c(c1)OCO2
cell number change: 64.4%
AC50 [2]: 5.17 µM [rising, partial curve]
AC50 [1]: 29.1 µM [rising, single point]
